# Data: article PMC7819943, “Rice protein-binding microarrays: a tool to detect cis-acting elements near promoter regions in rice”
# The list shows a part of the results.
# Target: T1, OsSMF1 (Oryza sativa, UniProt Q6ZLB0 1-436)
# T1 sequence: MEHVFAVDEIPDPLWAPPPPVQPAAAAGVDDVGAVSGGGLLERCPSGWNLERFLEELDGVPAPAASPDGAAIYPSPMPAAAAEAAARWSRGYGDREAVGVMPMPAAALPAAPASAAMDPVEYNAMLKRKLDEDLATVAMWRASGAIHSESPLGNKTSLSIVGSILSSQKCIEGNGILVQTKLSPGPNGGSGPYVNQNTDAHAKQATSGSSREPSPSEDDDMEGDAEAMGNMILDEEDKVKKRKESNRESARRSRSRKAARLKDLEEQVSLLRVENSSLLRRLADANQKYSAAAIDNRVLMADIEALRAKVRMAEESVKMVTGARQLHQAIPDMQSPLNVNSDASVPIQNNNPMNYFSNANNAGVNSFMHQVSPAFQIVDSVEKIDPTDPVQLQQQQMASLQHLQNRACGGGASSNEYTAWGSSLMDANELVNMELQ
# Experiment: protein-binding microarray (RPBM); PBS, 2% BSA, 51.3 ng/ul salmon testes DNA, 50 uM zinc acetate, 200 nM TF, 25 C, 1 h; high values mean tight binding
# Settings: protein: recombinant; tags: N-terminal polyhistidine and DsRed monomer fusion (pET32a); chain copies: 2; label: CyDye5-dUTP incorporated in the synthesized complementary strand; 3' TTTTT single-stranded linker to array surface; dsDNA, one strand shown
# How it was run: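 Ni–NTA purification followed expression in E. coli BL21-CodonPlus of transcription factors fused N-terminally to a polyhistidine tag and DsRed. At 200 nM in PBS with 2% BSA, salmon testes DNA and 50 µM zinc acetate, the protein was incubated for 1 h at 25 °C with a custom Agilent array that had been primer-extended with Cy5-dUTP and blocked with 2% BSA. After washing, the array was read on an Axon 4000B scanner. The binding signal is per-feature fluorescence intensity in arbitrary units.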
row,Sequence,binding signal
1,TCGAAGTGGTATTCCGATGATCTCACGCGGCCACGCTCCCCGGAGTCACCTAGTGCAG,3260 fluorescence intensity (a.u.)
2,TTGCATCGTGGGCTTAGCGTCACGCCGAAGTGACCCCTCACGGAGTCACCTAGTGCAG,5290 fluorescence intensity (a.u.)
3,GCGTTTTCGGCGGGGAACGCGGGGAGGCGGGTGGGGTTGACGGAGTCACCTAGTGCAG,4290 fluorescence intensity (a.u.)
4,CAACCTCCAGCTCATGGCTACTCTCTCTCTCTCTCTCTCTCGGAGTCACCTAGTGCAG,5380 fluorescence intensity (a.u.)
5,AATACAGCACATACTATATGTATATTTGGTGACGCCCTCTCGGAGTCACCTAGTGCAG,3180 fluorescence intensity (a.u.)
6,TTTGAAGTCAGCAATGTAACACGTGGCCGAATCAGATTGCCGGAGTCACCTAGTGCAG,12600 fluorescence intensity (a.u.)
7,AGATGCTGCTTCTGGGAGAAGTAGACCACGTGTGGTTTGCCGGAGTCACCTAGTGCAG,3640 fluorescence intensity (a.u.)
8,ATAGAGTGACCTTAGCAATTGGTGATGGGGCAAATGATGTCGGAGTCACCTAGTGCAG,3540 fluorescence intensity (a.u.)
9,GCAGCTACGGCTTTGTGAACTCTGGCTCCATGCTGTCACCCGGAGTCACCTAGTGCAG,10300 fluorescence intensity (a.u.)
10,AATTCTCAAATAAATCAGTAGTGAGACAATGGTGCCAATCCGGAGTCACCTAGTGCAG,3560 fluorescence intensity (a.u.)
11,TCTCAGCCTGTCCAATTCATACAAAGCCTACGCAGTAAGACGGAGTCACCTAGTGCAG,20200 fluorescence intensity (a.u.)
12,ACGTGCTACACGTGGCAGACAGACATGTGGGCCCTCCCCACGGAGTCACCTAGTGCAG,15100 fluorescence intensity (a.u.)
13,GGCGTGCGTACCAGTGCTGTTCGTCGTCGTCATCGCTCGACGGAGTCACCTAGTGCAG,5110 fluorescence intensity (a.u.)
14,CGCCCGACGCCGCCGCAACTGCCGTAAGCGGCTTTATCACCGGAGTCACCTAGTGCAG,3190 fluorescence intensity (a.u.)
15,TTGGTGCTGGTGGAGTTGATGTGGGCGGTGAGACATCAAACGGAGTCACCTAGTGCAG,3650 fluorescence intensity (a.u.)
16,TCCTAGGAGTTGTTTCTACCTGTGCTGCTGCTGCTGATTTCGGAGTCACCTAGTGCAG,33500 fluorescence intensity (a.u.)
17,CCAGGAGCTCCTTCCTGCCACGTCATCAATGGCGATGATGCGGAGTCACCTAGTGCAG,17000 fluorescence intensity (a.u.)
18,TGACTAGTTGAAAATATGACTATGAATTTGAGGCACTACCCGGAGTCACCTAGTGCAG,3940 fluorescence intensity (a.u.)
19,AAGAGATGGGGATTAAACCAATTGGGCCGAAAGATATGTCCGGAGTCACCTAGTGCAG,41200 fluorescence intensity (a.u.)
20,CGACGGCTTCCCGCCGCCGTATCCGTCACCACTAGCCACCCGGAGTCACCTAGTGCAG,4170 fluorescence intensity (a.u.)
21,AATGTCAGGGATGATCAGCCAACGTGGCAAATATGCTAATCGGAGTCACCTAGTGCAG,4900 fluorescence intensity (a.u.)

row,Sequence,binding signal
1,TGCTCCGCCGCGCTCCACACCAGCCGCTGCCGCCGCCGCCCGGAGTCACCTAGTGCAG,20100 fluorescence intensity (a.u.)
2,CGCGGTGCCGCCATTGCCGCCTCACTCCTCCTCCACTCCCCGGAGTCACCTAGTGCAG,3180 fluorescence intensity (a.u.)
3,CGGAGAACGTGACGGGGCCATAGAGGGAAGGGTGGCGTGACGGAGTCACCTAGTGCAG,3150 fluorescence intensity (a.u.)
4,TCAGCCGTAGATACAAGATCTGACGGTGCAGATGGAAGGGCGGAGTCACCTAGTGCAG,3760 fluorescence intensity (a.u.)
5,TTCAGTGGTGCGCGCGTGGTGGCGCCACGGAGGCCGACAACGGAGTCACCTAGTGCAG,3690 fluorescence intensity (a.u.)
6,GGGATATCTCTCCCCTCCTAACTAAATAAAGGAAGGAAGCCGGAGTCACCTAGTGCAG,5610 fluorescence intensity (a.u.)
7,CGGCATTCGCCAAAGGCCGGGAGAGTCGATAAGAGAATACCGGAGTCACCTAGTGCAG,7060 fluorescence intensity (a.u.)
8,GCCCGGTCGGTCAGTGTGTGTCACTGTCTCTCACCCTCCCCGGAGTCACCTAGTGCAG,5750 fluorescence intensity (a.u.)
9,TAGAGGGAGATCTATACTCACTCTGATCCTAAATACGAACCGGAGTCACCTAGTGCAG,32600 fluorescence intensity (a.u.)
10,CTTCCATTCTAGCAGATAGAAAGAAACTAAAAGACACAGCCGGAGTCACCTAGTGCAG,26300 fluorescence intensity (a.u.)
11,CCGCCACCGCCACCTCGCTGTCGTGGCTACCTCAGCCGTCCGGAGTCACCTAGTGCAG,7620 fluorescence intensity (a.u.)
12,TGTCCCTCTCTCATCATCATCATTCATCAATCGTCGCCTGCGGAGTCACCTAGTGCAG,15500 fluorescence intensity (a.u.)
13,ATGCATGTGTGGAGTCATCCAATGGTTCCTTCTCCCTTGCCGGAGTCACCTAGTGCAG,5140 fluorescence intensity (a.u.)
14,CGCAGCAGCAGTAGCCGAGTTCCGCCGCCACGCGCAGCAGCGGAGTCACCTAGTGCAG,4080 fluorescence intensity (a.u.)
15,AGACGCCGCTTGTAGACAGCCCCATCCTGTCGCCACGTGTCGGAGTCACCTAGTGCAG,11300 fluorescence intensity (a.u.)
16,GTTGCTCATCCAATGTGACGTCAGATGTTCATAGGAGTACCGGAGTCACCTAGTGCAG,13400 fluorescence intensity (a.u.)
17,TGTGATTCTGTGAAGATGTCATCAATATTTATAGGAGCGCCGGAGTCACCTAGTGCAG,4950 fluorescence intensity (a.u.)
18,GTCGTATTTCCTAATTAATATATATAATTTGTCGTCATTACGGAGTCACCTAGTGCAG,3700 fluorescence intensity (a.u.)
19,CGACTACTCCACATCACCCGACCCTCTGAGATCACCCTGACGGAGTCACCTAGTGCAG,7420 fluorescence intensity (a.u.)
20,AGCTATCATGTAAGCGTCACGTCAATGCGATGCAGGGGCGCGGAGTCACCTAGTGCAG,4630 fluorescence intensity (a.u.)
21,CAGCTAGCTCGACGCCCCATCTCTCTCTCTCTCTCTCTCTCGGAGTCACCTAGTGCAG,3410 fluorescence intensity (a.u.)
